In US20150044251A1 (Novartis, published 2015) one finds binding data, which are given here for one substance.

Protein sequences, listed by entry. Tags and fused reporters are not part of them. Lines headed by an entry give the natural chain unless they say otherwise; changes in a name come on top.
UniProt Q2FKG1: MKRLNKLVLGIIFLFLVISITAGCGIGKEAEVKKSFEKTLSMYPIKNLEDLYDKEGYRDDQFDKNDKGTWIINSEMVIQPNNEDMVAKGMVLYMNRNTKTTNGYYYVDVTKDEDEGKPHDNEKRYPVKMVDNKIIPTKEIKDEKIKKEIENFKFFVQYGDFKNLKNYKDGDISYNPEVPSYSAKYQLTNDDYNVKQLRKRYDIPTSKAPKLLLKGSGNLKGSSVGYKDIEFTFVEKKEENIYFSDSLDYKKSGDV

The experiment addresses Sta011 (Staphylococcus aureus) (UniProt Q2FKG1). The experiment can be described thus: SEC-HPLC of tetravalent pre-lyophilized formulation; self-association (dimer peak).

No constants are given. Whether binding was seen depends on the method and setting. Some results given as binding are weak or reduced against the parent protein; the word gives no strength.

In the case of Sta011 (from UniProt Q2FKG1 24-255), the binding result was “binds”.
